Results are given in words; binding and its absence hold for the method and conditions named. For some assays here: Binding seen in cells or lysates may run through a third protein. Some binding calls cover weakened binding; strength is not graded here. For some assays here: Sequences can lack the tags named with a protein.
What was measured:
[1] = biological target: T1, LZTR1-GFP (human) (UniProt Q8N653); assay: co-immunoprecipitation with FLAG affinity matrix, 293T cells, western blot
T1 sequence (looked up): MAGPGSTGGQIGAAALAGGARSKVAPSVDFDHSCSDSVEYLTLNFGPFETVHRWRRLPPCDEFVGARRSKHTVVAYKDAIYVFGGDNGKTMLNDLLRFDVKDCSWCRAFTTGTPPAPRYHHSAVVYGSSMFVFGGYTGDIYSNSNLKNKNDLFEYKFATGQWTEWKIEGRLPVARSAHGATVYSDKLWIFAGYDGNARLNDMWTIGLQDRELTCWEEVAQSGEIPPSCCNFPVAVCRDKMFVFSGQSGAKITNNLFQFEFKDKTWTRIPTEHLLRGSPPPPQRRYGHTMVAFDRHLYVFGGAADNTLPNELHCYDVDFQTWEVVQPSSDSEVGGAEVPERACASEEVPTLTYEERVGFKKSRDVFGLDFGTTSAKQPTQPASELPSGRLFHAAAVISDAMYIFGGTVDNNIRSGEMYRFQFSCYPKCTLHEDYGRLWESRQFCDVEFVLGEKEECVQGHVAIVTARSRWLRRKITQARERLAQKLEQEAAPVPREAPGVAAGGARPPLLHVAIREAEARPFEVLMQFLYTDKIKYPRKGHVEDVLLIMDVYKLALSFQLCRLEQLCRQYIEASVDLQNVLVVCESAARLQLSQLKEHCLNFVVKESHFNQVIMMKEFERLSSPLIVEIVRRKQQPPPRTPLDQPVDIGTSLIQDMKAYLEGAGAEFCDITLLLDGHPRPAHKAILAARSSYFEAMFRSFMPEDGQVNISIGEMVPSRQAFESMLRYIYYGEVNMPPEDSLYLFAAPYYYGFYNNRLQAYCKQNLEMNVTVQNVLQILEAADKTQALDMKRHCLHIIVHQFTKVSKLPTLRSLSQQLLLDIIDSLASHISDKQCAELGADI

Amino acid sequences for entries named in this document (tags omitted). Residues count along the entry.
UniProt P35555, residues 45-2731: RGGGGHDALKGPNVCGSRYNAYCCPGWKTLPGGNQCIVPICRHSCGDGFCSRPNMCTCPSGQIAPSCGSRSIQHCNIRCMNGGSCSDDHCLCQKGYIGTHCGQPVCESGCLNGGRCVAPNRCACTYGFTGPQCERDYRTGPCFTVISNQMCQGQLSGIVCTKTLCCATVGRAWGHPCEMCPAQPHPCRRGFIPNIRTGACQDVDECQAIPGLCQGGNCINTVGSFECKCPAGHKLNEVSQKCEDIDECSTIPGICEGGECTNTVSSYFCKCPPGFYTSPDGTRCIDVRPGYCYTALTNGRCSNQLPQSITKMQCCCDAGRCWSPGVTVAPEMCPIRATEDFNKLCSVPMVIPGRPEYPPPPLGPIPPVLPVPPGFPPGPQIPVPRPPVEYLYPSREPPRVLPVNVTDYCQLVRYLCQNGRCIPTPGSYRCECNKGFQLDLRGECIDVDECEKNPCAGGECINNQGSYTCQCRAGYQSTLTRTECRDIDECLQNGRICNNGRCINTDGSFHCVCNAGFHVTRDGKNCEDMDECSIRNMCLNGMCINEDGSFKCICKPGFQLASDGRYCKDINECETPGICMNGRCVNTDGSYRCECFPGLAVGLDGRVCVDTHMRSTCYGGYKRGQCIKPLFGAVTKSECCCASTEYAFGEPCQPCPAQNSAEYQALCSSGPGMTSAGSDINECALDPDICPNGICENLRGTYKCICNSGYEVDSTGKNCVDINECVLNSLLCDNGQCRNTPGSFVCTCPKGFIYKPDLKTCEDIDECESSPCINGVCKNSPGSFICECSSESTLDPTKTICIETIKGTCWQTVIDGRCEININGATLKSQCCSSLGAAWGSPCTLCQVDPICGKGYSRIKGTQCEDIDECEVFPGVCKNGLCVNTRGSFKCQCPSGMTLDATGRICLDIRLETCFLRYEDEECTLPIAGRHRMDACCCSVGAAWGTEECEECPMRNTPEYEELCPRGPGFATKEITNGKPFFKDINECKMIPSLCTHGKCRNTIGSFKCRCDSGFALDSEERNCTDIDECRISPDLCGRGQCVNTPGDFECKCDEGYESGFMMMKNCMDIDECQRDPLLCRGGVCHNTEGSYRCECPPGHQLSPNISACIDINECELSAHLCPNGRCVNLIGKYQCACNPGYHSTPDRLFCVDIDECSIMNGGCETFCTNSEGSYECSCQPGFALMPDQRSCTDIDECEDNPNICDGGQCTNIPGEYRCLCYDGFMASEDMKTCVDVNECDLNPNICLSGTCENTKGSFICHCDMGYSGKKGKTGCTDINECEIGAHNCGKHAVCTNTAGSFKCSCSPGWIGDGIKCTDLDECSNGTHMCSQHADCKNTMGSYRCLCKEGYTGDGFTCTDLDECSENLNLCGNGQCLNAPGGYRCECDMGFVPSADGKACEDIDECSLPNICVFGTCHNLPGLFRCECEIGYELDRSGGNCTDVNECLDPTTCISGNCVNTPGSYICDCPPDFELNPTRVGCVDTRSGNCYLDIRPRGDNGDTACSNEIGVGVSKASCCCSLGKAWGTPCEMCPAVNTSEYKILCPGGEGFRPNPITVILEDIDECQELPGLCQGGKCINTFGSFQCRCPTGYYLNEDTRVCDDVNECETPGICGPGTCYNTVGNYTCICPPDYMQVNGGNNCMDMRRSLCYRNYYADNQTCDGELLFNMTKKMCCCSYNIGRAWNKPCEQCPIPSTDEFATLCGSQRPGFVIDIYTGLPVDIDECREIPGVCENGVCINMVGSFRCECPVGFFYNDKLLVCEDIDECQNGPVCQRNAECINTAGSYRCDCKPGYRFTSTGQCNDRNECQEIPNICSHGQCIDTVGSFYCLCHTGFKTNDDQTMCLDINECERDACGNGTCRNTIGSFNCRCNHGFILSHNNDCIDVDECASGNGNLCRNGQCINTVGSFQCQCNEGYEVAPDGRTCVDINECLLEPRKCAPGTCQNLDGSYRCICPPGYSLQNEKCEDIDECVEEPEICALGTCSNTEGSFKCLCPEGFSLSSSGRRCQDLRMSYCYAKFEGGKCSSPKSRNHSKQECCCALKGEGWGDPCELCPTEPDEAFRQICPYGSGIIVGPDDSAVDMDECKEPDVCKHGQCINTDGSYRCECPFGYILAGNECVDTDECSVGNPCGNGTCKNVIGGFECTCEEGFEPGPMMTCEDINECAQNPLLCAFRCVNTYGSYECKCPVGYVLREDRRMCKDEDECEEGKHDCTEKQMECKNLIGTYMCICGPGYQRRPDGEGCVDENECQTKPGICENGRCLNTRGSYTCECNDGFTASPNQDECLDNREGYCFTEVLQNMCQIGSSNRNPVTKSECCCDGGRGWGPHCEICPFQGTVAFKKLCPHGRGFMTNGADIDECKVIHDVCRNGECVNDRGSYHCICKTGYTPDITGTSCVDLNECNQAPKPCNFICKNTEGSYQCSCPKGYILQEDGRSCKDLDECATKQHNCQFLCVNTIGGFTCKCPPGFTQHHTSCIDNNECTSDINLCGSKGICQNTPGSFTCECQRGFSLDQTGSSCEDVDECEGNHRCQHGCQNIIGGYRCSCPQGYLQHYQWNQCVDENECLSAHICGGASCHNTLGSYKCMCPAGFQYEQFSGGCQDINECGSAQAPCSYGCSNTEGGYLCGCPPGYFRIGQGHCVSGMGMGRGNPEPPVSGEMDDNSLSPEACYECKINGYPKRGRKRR
UniProt P13611, residues 21-3396: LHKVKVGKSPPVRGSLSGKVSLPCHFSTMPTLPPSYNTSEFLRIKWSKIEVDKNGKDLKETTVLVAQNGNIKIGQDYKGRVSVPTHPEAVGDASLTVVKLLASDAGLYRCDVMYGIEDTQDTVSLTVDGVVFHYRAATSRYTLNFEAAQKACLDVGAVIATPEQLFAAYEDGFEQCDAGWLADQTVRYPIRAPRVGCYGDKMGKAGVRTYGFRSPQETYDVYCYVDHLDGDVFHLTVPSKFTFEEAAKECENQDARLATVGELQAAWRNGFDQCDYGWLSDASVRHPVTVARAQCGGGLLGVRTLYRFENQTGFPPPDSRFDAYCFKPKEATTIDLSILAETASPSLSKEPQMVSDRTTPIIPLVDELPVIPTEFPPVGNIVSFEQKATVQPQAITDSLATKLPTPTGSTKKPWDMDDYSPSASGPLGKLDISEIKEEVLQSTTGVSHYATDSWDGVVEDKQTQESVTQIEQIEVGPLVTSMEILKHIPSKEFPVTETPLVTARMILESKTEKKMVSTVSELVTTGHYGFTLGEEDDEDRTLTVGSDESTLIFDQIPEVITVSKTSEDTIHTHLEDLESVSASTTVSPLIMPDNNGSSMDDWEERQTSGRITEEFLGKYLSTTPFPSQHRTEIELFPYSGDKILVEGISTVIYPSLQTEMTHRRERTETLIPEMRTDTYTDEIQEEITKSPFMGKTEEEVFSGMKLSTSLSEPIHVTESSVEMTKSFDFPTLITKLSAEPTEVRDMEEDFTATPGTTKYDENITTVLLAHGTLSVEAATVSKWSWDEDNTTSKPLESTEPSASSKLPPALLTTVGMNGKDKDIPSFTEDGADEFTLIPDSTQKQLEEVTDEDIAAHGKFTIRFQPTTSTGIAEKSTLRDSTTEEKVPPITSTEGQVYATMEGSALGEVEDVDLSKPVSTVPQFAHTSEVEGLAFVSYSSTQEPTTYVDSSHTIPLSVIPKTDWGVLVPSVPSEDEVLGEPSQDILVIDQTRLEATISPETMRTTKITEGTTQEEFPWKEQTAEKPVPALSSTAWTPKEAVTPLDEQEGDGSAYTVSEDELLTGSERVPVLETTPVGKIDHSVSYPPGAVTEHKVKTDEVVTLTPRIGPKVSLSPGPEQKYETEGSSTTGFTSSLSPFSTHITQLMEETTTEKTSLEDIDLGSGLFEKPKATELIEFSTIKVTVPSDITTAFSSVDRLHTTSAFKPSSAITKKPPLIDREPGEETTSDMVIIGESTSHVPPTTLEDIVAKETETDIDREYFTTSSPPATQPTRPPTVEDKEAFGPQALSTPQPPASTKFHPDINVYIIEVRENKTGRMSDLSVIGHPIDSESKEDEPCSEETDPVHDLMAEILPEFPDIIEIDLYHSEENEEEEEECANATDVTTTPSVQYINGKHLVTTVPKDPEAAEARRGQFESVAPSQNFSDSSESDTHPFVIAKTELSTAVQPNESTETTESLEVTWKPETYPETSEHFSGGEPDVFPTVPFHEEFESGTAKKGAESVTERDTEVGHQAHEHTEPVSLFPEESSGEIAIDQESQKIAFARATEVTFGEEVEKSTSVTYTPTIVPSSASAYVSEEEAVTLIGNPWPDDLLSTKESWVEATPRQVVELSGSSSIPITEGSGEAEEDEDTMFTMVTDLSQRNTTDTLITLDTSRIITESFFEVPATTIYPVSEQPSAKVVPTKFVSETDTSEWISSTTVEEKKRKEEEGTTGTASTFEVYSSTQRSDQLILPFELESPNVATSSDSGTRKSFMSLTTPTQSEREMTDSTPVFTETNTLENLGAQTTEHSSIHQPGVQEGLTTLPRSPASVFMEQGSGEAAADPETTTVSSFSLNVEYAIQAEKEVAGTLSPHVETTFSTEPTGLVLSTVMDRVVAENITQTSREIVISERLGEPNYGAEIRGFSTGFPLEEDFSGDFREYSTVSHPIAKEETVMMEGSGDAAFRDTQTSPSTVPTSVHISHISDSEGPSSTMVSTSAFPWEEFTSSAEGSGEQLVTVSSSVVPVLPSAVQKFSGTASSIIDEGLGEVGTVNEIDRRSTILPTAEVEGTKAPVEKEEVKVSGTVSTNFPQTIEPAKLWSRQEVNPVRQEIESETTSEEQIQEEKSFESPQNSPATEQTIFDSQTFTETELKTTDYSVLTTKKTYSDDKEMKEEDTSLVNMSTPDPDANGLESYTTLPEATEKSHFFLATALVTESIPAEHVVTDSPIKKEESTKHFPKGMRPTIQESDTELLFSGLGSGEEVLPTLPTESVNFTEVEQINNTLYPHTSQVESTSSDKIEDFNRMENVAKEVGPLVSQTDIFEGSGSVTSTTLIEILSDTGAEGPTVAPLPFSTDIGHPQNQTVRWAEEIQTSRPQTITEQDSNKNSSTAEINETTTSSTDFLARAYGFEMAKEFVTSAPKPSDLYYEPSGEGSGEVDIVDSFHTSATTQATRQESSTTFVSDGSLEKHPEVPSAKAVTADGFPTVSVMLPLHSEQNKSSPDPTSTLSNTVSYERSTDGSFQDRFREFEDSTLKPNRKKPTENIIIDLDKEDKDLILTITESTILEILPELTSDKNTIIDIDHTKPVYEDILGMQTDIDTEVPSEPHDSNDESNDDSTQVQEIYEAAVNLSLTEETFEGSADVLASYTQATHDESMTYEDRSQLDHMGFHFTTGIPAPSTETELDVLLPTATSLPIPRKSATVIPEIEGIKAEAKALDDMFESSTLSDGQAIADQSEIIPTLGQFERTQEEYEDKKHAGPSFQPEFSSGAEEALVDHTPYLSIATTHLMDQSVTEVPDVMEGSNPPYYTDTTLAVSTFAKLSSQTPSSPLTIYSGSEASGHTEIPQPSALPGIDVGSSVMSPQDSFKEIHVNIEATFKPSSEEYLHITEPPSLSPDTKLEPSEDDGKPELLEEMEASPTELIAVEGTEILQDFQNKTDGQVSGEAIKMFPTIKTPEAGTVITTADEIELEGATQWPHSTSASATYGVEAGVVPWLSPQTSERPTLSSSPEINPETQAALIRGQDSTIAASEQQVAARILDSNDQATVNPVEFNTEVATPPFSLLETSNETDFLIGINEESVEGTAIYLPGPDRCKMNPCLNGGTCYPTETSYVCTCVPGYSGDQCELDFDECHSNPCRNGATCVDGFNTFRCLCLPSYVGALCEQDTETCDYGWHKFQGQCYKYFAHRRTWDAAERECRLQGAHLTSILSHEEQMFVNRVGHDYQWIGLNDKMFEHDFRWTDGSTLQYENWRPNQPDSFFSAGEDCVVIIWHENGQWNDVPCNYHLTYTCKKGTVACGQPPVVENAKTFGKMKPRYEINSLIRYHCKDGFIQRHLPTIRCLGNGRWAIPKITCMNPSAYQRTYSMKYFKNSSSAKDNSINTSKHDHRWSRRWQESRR
UniProt Q92963: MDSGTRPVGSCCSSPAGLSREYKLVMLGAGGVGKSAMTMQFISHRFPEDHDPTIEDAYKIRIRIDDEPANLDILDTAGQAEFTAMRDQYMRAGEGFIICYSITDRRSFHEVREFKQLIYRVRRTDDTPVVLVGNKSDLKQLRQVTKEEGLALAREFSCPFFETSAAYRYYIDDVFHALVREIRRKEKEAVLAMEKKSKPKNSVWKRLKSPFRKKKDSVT

[2] = biological target: FBN1 (human) (UniProt P35555); assay: IP/MS, LZTR1 R810W-FLAG, U87
[3] = biological target: T2, TMC04 (human) (UniProt Q5TGY1); assay: IP/MS, LZTR1 R810W-FLAG, U87
T2 sequence (looked up): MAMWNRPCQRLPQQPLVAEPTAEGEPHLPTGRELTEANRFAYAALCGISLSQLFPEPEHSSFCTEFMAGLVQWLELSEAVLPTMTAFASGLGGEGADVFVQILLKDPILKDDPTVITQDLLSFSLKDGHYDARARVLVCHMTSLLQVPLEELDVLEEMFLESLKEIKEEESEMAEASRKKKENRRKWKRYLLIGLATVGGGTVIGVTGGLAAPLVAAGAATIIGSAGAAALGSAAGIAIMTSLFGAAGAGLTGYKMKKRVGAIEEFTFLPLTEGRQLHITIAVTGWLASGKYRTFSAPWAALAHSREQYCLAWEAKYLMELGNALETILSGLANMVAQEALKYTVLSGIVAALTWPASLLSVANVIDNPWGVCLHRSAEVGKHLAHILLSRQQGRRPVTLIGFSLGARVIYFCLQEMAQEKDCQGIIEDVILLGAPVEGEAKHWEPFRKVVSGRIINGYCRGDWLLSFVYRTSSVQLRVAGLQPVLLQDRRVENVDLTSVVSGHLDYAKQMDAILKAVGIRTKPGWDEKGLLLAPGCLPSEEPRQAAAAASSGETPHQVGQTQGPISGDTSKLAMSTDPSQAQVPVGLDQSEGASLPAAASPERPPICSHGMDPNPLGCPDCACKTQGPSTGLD

[4] = biological target: VCAN (human) (UniProt P13611); assay: IP/MS, LZTR1 R810W-FLAG, U87
[5] = biological target: MCM3AP (human) (UniProt O60318); assay: IP/MS, LZTR1 R810W-FLAG, U87
[6] = biological target: PML (human) (UniProt P29590); assay: IP/MS, LZTR1 R810W-FLAG, U87
[7] = biological target: T3, FASTKD2 (human) (UniProt Q9NYY8); assay: IP/MS, LZTR1 R810W-FLAG, U87
T3 sequence (looked up): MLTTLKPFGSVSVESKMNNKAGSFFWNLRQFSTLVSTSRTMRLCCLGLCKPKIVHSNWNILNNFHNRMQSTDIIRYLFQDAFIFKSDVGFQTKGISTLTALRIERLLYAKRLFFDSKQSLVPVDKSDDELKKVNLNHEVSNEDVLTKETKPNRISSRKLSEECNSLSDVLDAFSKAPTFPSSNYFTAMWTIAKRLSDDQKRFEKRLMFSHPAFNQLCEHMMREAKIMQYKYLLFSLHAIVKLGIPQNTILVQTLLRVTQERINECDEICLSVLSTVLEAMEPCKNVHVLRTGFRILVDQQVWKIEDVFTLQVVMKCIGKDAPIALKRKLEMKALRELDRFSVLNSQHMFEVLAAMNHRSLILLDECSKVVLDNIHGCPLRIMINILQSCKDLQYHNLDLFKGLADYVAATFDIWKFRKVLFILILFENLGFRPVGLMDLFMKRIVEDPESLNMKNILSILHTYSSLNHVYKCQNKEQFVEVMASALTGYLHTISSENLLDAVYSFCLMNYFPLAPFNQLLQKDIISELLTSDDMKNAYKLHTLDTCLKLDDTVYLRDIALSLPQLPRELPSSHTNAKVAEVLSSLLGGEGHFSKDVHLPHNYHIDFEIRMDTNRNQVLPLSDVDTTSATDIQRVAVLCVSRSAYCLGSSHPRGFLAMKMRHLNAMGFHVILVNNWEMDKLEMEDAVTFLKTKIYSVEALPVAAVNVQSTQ

[8] = biological target: T4, SHC1 (human) (UniProt P29353); assay: IP/MS, LZTR1 R810W-FLAG, U87
T4 sequence (looked up): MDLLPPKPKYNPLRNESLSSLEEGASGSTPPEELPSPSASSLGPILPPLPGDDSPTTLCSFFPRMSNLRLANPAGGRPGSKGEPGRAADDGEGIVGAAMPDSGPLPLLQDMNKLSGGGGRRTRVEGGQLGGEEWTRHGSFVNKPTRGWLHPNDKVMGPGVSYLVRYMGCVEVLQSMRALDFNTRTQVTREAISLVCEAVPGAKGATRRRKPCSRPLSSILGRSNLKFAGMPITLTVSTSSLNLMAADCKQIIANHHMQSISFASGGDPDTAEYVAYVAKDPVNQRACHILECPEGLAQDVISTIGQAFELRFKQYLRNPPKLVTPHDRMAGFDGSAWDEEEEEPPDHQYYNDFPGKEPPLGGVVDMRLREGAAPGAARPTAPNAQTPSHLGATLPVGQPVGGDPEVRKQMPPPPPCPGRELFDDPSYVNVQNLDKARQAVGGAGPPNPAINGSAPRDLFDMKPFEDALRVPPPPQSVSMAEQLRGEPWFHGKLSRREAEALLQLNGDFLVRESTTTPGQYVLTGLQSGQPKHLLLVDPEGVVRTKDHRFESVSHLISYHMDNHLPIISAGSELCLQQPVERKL

| binding [1] | binding [2] | binding [3] | binding [4] | binding [5] | binding [6] | binding [7] | binding [8] | Substance |
| --- | --- | --- | --- | --- | --- | --- | --- | --- |
| binds | – | – | – | – | – | – | – | FLAG-RIT1 (from UniProt Q92963 1-219) |
| – | binds | binds | binds | binds | binds | binds | binds | LZTR1 R810W-FLAG (from UniProt Q8N653 1-840) |

From patent US20250262210A1, “LZTR1 MUTANT TUMORS AND METHODS THEREOF” (The Trustees of Columbia University in the City of New York, priority 2022, published 2025)
